Experimental data published in patent US20250268856A1, “Pain Relieving Method” (Animal Ethics Pty Ltd, priority 2019, published 2025).
For at least one compound, name, drawing or mass did not settle the structure.

Key:
[1] = Study 2: motor response scores to the procedure of castration; assay type: in vivo, piglets; details: during the procedure (castration), versus placebo, topical to open wound
Description: (§1) Study 2: A follow-up study confirmed efficacy of meloxicam analgesic effects when applied to piglets via topical wound application either alone or in combination with tetracaine 2%. Piglets were treated with placebo, meloxicam 0.1%, tetracaine 2% or a combination of tetracaine 2% and meloxicam 1%, otherwise formulated as above, and examined for clinical efficacy via documentation of motor response scores to a) the procedure of castration, and b) pre- and post-operative mechanical sensory testing of the wound site using Von-Frey filament testing.

[2] = Study 2: post-operative mechanical sensory testing of the wound site using Von-Frey filament testing (motor response scores); assay type: in vivo, piglets; details: for Motor response scores: versus placebo
Description: as §1

[3] = IM injection 0.4 mg/kg 20-30 minutes prior to the procedure; 2-4 hours post castration; cited from earlier work

In the case of `Cc1cnc(NC(=O)C2=C(O)c3ccccc3S(=O)(=O)N2C)s1` [Meloxicam], the Motor response scores [1] is reported as “did not differ significantly from placebo”, the Motor response scores ([2]; 1 minute following the procedure) is reported as “did not differ significantly from placebo” and the Motor response scores ([2]; 1 hour following the procedure) is reported as “below placebo treated piglets”. The Motor response scores ([2]; 4 hours following the procedure) was “below placebo treated piglets”, the Motor response scores ([2]; 12 hours following the procedure) was “below placebo treated piglets” and the “Duration of analgesic effects compared with IM delivery” value ([2]; topical wound application versus trials of Keita et al., different techniques) was “more prolonged than following IM delivery”. For the same molecule, the “Pain related behaviour post castration” value [3] was “proven efficacy to reduce pain related behaviour”.
